Experimental data: PubChem BioAssay (NCI)
Most of the hits are listed elsewhere, so they are rarer here than in the full data. Active and inactive are the calls of the source. Cut-off read from the data, not from the text of the source: active = growth inhibition above about 70%; inactive = the rest.

Assay: NCI Yeast Anticancer Drug Screen. Data for the rad14 strain (AID 159);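 note: 0% = growth of vehicle-treated control cultures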
Conditions: S. cerevisiae rad14 strain growth inhibition, stronger effect = higher value
Procedure: Growth inhibition of yeast strains with defined genetic alterations is measured as a screen for potential anti-cancer activity. Selected strains with alterations in DNA damage repair or cell cycle control were exposed to compounds and growth inhibition was measured relative to vehicle treated controls. The strain used in this assay is rad14

Measured: growth inhibition

CCOC(=O)CNP(=S)(OCC)OCC
inactive: at 1.2 µM 0% | at 3.7 µM 2% | at 11.0 µM 5% | at 33.0 µM 6% | at 100.0 µM 5%

O=P1(NNc2ncccn2)SC(NN=C2CCCCC2)=NC12CCCCC2 (stereo not given)
inactive: at 1.2 µM -1% | at 3.7 µM 1% | at 11.0 µM -1% | at 33.0 µM -3% | at 100.0 µM 6%

Cc1cc[c]([Sb]2[O]C(CO)C(C(O)C(O)C(=O)O)[O]2)cc1 (stereo not given)
inactive: at 1.2 µM -2% | at 3.7 µM -6% | at 11.0 µM 4% | at 33.0 µM 6% | at 100.0 µM 8%

CCCCN(CCCC)CC(=O)c1ccc(I)cc1
inactive: at 1.2 µM 1% | at 3.7 µM 7% | at 11.0 µM 23% | at 33.0 µM 25% | at 100.0 µM 52%

O=C(NCP(=O)(Oc1ccccc1)Oc1ccccc1)OCc1ccccc1
inactive: at 1.2 µM -2% | at 3.7 µM 1% | at 11.0 µM -4% | at 33.0 µM -5% | at 100.0 µM 0%

O=C(O)C(O)C(O)C1[O][Sb][O]C1CO (stereo not given)
inactive: at 1.2 µM 0% | at 3.7 µM 13% | at 11.0 µM 3% | at 33.0 µM 3% | at 100.0 µM 4%

O=C(CCN1CC1)Nc1ccccc1
inactive: at 1.2 µM -1% | at 3.7 µM -6% | at 11.0 µM -2% | at 33.0 µM 2% | at 100.0 µM 52%

COc1cc2c3cc1Oc1c(O)c(OC)cc4c1[C@H](Cc1ccc(cc1)Oc1cc(ccc1O)C[C@H]3N(C)CC2)N(C)CC4
inactive: at 1.2 µM -1% | at 3.7 µM -4% | at 11.0 µM -2% | at 33.0 µM -6% | at 100.0 µM -4%
